Data as given in patent US9725423B2, “Tetrazolinone compound and applications thereof” (SUMITOMO CHEMICAL COMPANY, LIMITED, priority 2012, dated 2017).
Like-named read-outs stand apart in the source and are kept apart here. Some results were stated once for a whole list of compounds, not compound by compound. For some assays here: For at least one compound, name, drawing or mass did not settle the structure.

Assays:
Format in all cases: in vivo
[1] = system: wheat leaf blotch fungus (Septoria tritici); test: Wheat leaf blotch control test, foliar spray on wheat (Test Examples 5, 11); details: 500 ppm, wheat (APOGEE), inoculated four days after spraying
[2] = system: kidney bean stem rot fungus (Sclerotinia sclerotiorum); test: Kidney bean stem rot control test, foliar spray on kidney bean (Test Examples 4, 10); details: 500 ppm, kidney bean (NAGAUZURA INGEN), four days after inoculation
[3] = system: barley net blotch fungus (Pyrenophora teres); test: Barley net blotch control test, foliar spray on barley (Test Examples 3, 9); details: 500 ppm, barley (MIKAMO GOLDEN), inoculated two days after spraying
[4] = system: rice blast fungus (Magnaporthe grisea); details: foliar spray, rice (NIHONBARE), 6 days contact with infected seedlings
[5] = system: barley scald fungus (Rhynchosporium secalis); test: Barley scald control test, foliar spray on barley (Test Example 14); details: 200 ppm, barley (MIKAMO GOLDEN), inoculated two days after spraying
[6] = system: wheat rust fungus (Puccinia recondita); test: Wheat rust control test, foliar spray on wheat (Test Examples 2, 8); details: wheat (SHIROGANE), inoculated 5 days after spraying

Compound: COc1cccc(-n2nnn(C)c2=O)c1CON=C(C)c1ccc2ccccc2c1 [present compound 47, 1-{3-methoxy-2-[l-(naphthalen-2-yl)ethylideneaminooxymethyl]phenyl}-4-methyl-1,4-dihydrotetrazol-5-one]
- area of lesion spots relative to that on an untreated plant [1]: ≤ 30%
- area of lesion spots relative to that on an untreated plant [2]: ≤ 30%
- area of lesion spots relative to that on an untreated plant [3]: ≤ 30%
- lesion area with respect to the lesion area on the non-treated plant ([4]; 200 ppm): ≤ 30%
- area of lesion spots relative to that on an untreated plant [5]: ≤ 30%

Compound: COc1cccc(-n2nnn(C)c2=O)c1CON=C(C)c1cccc2c1CCC2 [present compound 132, 1-[2-(1-indan-4-ylethylideneaminooxymethyl)-3-methoxyphenyl]-4-methyl-1,4-dihydrotetrazol-5-one]
- area of lesion spots relative to that on an untreated plant ([6]; 200 ppm): ≤ 30%
- lesion area with respect to the lesion area on the non-treated plant ([4]; 200 ppm): ≤ 30%

Compound: CCc1cccc(-n2nnn(C)c2=O)c1CON=C(C)c1cccc(C(F)(F)F)c1 [present compound 30, 1-{3-ethyl-2-[1-(3-trifluoromethylphenyl)ethylideneaminooxymethyl]phenyl}-4-methyl-1,4-dihydrotetrazol-5-one]
- area of lesion spots relative to that on an untreated plant ([6]; 500 ppm): ≤ 30%
- lesion area with respect to the lesion area on the non-treated plant ([4]; 500 ppm): ≤ 30%

Compound: CCC(=NOCc1c(C)cccc1-n1nnn(C)c1=O)c1cccc(OC(F)(F)F)c1 [present compound 118, 1-{2-[1-(3-trifluoromethoxyphenyl)propylideneaminooxymethyl]-3-methylphenyl}-4-methyl-1,4-dihydrotetrazol-5-one]
- area of lesion spots relative to that on an untreated plant ([6]; 200 ppm): ≤ 30%
- lesion area with respect to the lesion area on the non-treated plant ([4]; 200 ppm): ≤ 30%

Compound: COc1cccc(C(C)=NOCc2c(C)cccc2-n2nnn(C)c2=O)c1 [present compound 34, 1-{3-methyl-2-[1-(3-methoxyphenyl)ethylideneaminooxymethyl]phenyl}-4-methyl-1,4-dihydrotetrazol-5-one]
- area of lesion spots relative to that on an untreated plant ([6]; 500 ppm): ≤ 30%
- lesion area with respect to the lesion area on the non-treated plant ([4]; 500 ppm): ≤ 30%

Compound: CC(=NOCc1c(C2CC2)cccc1-n1nnn(C)c1=O)c1cccc(OC(F)(F)F)c1 [present compound 54, 1-{3-cyclopropyl-2-[1-(3-trifluoromethoxyphenyl)ethylideneaminooxymethyl]phenyl}-4-methyl-1,4-dihydrotetrazol-5-one]
- area of lesion spots relative to that on an untreated plant ([6]; 200 ppm): ≤ 30%
- lesion area with respect to the lesion area on the non-treated plant ([4]; 200 ppm): ≤ 30%

Compound: CC(=NOCc1c(C)cccc1-n1nnn(C)c1=O)c1cccc2c1CCC2 [present compound 110, 1-[2-(1-indan-4-ylethylideneaminooxymethyl)-3-methylphenyl]-4-methyl-1,4-dihydrotetrazol-5-one]
- area of lesion spots relative to that on an untreated plant ([6]; 500 ppm): ≤ 30%
- lesion area with respect to the lesion area on the non-treated plant ([4]; 500 ppm): ≤ 30%

Compound: CC(C=CC(C)C)=NOCc1c(C)cccc1-n1nnn(C)c1=O [present compound 204, 1-[2-(1,4-dimethylpentane-2-enylideneaminooxymethyl)-3-methylphenyl]-4-methyl-1,4-dihydrotetrazol-5-one]
- area of lesion spots relative to that on an untreated plant ([6]; 500 ppm): ≤ 30%
- lesion area with respect to the lesion area on the non-treated plant ([4]; 500 ppm): ≤ 30%

Compound: CC=C(C)C(C)=NOCc1c(C)cccc1-n1nnn(C)c1=O [present compound 203, 1-[2-(1,2-dimethylbutan-2-enylideneaminooxymethyl)-3-methylphenyl]-4-methyl-1,4-dihydrotetrazol-5-one]
- area of lesion spots relative to that on an untreated plant ([6]; 500 ppm): ≤ 30%
- lesion area with respect to the lesion area on the non-treated plant ([4]; 500 ppm): ≤ 30%

Compound: CC(=NOCc1c(C)cccc1-n1nnn(C)c1=O)C1=CCCCC1 [present compound 202, 1-[2-(1-cyclohex-1-enylethylideneaminooxymethyl)-3-methylphenyl]-4-methyl-1,4-dihydrotetrazol-5-one]
- area of lesion spots relative to that on an untreated plant ([6]; 500 ppm): ≤ 30%
- lesion area with respect to the lesion area on the non-treated plant ([4]; 500 ppm): ≤ 30%

Compound: CC(=NOCc1c(Cl)cccc1-n1nnn(C)c1=O)c1cc(C)cc(C)c1 [present compound 10, 1-{3-chloro-2-[1-(3,5-dimethylphenyl)ethylideneaminooxymethyl]phenyl}-4-methyl-1,4-dihydrotetrazol-5-one]
- area of lesion spots relative to that on an untreated plant ([6]; 200 ppm): ≤ 30%
- lesion area with respect to the lesion area on the non-treated plant ([4]; 200 ppm): ≤ 30%

Compound: CC(=NOCc1c(C2CC2)cccc1-n1nnn(C)c1=O)c1cccc2c1CCO2 [present compound 154, 1-{3-cyclopropyl-2-[1-(2,3-dihydrobenzofuran-4-yl)ethylideneaminooxymethyl]phenyl]-4-methyl-1,4-dihydrotetrazol-5-one]
- area of lesion spots relative to that on an untreated plant ([6]; 500 ppm): ≤ 30%
- lesion area with respect to the lesion area on the non-treated plant ([4]; 500 ppm): ≤ 30%

Compound: CC(=NOCc1c(C)cccc1-n1nnn(C)c1=O)c1cccc2c1CCO2 [present compound 152, 1-{2-[1-(2,3-dihydrobenzofuran-4-yl)ethylideneaminooxymethyl]-3-methylphenyl]-4-methyl-1,4-dihydrotetrazol-5-one]
- area of lesion spots relative to that on an untreated plant ([6]; 500 ppm): ≤ 30%
- lesion area with respect to the lesion area on the non-treated plant ([4]; 500 ppm): ≤ 30%
